{"source": "patent US20170247409A1", "about": "“ABIETANE-TYPE DITERPENOIDS” (UNIVERSITY OF HELSINKI, priority 2014, published 2017)", "tested_on": "S. aureus ATCC 25923 biofilms", "assay": "Anti-biofilm viability assay with redox dye, pre- and post-exposure, S. aureus ATCC 25923 biofilms", "assay_type": "cell-based, Staphylococcus aureus", "conditions": "at 400 μM, existing biofilms, listed as penicillin G", "note": "Some of these results come from one statement about several compounds together. For at least one compound, name, drawing or mass did not settle the structure.", "data": [{"smiles": "CC1(C)S[C@@H]2[C@H](NC(=O)Cc3ccccc3)C(=O)N2[C@H]1C(=O)O", "note": "[Penicillin G, reference compound]", "values": [{"measurement": "% inhibition, Post-biofilm formation", "value": "≤ 60", "unit": "%"}]}]}
